From the supplement of paper PMC6411743
± gives the standard deviation of the averaged measurements. This is a selection; strong and weak results do not stand in their true shares.

Amino acid sequences for entries named in this document (tags omitted). A change or cut given only in a name is not applied to a line headed by its entry.
UniProt P51148: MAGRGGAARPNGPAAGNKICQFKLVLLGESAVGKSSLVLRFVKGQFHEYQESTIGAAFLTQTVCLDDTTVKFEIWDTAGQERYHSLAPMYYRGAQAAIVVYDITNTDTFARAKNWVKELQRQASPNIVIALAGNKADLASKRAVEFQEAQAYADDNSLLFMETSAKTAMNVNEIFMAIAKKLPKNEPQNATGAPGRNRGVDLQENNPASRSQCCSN
UniProt P46108: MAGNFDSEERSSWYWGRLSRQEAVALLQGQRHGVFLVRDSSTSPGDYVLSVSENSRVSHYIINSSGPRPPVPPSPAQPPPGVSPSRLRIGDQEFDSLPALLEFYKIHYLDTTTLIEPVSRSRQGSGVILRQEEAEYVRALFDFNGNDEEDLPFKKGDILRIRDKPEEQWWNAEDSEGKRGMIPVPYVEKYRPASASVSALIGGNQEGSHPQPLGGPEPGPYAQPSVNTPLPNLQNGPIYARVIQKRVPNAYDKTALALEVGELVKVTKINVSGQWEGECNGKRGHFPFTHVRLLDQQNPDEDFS
UniProt P50502: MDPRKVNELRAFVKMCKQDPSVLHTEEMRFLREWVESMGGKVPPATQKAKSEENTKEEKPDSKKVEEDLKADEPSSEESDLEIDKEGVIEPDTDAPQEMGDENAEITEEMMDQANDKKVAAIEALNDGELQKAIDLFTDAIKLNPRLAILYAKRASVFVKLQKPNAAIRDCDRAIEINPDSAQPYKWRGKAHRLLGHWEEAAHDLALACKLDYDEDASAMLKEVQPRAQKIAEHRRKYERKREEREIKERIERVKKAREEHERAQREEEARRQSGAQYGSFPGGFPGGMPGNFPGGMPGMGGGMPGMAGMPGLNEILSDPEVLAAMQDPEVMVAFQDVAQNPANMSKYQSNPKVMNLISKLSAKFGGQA
UniProt P49427: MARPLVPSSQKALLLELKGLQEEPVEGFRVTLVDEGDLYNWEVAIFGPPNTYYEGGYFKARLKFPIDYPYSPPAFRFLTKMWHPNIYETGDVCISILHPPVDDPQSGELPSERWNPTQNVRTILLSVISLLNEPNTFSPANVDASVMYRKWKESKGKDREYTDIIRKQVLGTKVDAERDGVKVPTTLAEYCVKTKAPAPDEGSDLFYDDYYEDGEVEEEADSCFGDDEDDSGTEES
UniProt P49790, whole entry: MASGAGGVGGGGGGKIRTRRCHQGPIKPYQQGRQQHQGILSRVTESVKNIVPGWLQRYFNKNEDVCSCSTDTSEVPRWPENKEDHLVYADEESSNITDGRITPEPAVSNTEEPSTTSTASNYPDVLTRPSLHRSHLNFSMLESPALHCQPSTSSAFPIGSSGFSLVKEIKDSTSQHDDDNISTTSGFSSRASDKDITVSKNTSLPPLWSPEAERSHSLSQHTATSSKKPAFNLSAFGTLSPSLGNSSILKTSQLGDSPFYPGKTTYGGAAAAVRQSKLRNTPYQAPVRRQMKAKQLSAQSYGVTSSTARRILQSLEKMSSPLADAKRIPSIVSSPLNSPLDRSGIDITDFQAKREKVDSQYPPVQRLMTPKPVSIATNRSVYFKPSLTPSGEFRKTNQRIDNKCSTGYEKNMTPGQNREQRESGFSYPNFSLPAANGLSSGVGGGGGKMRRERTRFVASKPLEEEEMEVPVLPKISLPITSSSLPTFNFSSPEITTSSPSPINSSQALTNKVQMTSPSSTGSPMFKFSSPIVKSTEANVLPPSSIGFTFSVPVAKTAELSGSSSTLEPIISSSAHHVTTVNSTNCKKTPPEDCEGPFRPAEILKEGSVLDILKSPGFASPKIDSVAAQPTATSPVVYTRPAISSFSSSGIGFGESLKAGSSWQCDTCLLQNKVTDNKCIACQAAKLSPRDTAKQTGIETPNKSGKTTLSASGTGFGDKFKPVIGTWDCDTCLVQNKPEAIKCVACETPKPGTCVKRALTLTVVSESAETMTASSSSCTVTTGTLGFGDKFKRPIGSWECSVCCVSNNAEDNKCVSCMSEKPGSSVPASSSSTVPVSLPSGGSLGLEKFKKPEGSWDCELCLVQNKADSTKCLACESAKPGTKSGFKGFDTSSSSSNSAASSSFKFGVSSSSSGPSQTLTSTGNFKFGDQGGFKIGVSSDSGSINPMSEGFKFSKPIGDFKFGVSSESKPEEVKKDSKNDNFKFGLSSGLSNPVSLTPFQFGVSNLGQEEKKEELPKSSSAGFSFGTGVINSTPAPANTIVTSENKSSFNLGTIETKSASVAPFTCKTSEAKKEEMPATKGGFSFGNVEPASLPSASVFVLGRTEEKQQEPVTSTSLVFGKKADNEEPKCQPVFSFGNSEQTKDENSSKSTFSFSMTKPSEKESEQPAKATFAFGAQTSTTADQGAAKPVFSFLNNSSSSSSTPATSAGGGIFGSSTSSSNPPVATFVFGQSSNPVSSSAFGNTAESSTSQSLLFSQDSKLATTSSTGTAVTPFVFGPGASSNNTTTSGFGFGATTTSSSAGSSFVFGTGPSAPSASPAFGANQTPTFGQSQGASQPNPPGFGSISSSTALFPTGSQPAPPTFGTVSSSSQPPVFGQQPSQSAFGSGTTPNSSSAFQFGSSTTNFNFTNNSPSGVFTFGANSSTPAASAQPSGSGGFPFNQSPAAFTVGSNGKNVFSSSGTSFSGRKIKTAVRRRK
UniProt P43897: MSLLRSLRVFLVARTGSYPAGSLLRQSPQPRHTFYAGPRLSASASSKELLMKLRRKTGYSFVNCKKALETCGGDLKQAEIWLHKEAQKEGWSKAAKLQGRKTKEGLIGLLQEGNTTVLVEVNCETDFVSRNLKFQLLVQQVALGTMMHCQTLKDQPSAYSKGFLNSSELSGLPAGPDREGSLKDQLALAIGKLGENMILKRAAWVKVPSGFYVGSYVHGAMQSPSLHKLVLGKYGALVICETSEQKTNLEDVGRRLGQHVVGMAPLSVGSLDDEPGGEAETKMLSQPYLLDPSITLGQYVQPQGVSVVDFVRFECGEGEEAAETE
UniProt P48059, whole entry: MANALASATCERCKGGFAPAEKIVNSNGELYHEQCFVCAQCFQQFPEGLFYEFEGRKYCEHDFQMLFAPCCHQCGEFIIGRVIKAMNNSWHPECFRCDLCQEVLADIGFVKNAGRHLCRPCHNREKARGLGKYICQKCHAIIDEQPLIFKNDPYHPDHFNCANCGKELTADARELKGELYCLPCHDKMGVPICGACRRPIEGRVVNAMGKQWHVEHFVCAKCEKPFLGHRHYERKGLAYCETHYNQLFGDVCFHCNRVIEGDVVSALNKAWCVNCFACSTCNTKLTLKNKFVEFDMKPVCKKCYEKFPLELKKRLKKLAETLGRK
UniProt P52739: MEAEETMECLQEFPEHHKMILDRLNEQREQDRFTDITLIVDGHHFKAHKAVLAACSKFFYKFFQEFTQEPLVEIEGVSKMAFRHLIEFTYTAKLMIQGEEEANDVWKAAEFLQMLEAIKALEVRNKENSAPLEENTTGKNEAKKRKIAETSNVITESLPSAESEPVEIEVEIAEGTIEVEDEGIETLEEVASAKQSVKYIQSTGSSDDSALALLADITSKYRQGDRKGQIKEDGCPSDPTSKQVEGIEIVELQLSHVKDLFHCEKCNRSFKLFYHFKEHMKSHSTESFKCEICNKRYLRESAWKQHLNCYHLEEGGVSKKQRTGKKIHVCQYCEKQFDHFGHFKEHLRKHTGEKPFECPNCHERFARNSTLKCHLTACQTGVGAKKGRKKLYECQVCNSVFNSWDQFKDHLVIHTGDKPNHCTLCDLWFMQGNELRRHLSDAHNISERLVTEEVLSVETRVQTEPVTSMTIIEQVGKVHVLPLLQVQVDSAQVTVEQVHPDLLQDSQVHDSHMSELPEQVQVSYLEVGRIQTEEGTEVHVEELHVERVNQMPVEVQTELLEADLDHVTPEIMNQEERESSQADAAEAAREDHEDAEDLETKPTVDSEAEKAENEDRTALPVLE
UniProt P51812, whole entry: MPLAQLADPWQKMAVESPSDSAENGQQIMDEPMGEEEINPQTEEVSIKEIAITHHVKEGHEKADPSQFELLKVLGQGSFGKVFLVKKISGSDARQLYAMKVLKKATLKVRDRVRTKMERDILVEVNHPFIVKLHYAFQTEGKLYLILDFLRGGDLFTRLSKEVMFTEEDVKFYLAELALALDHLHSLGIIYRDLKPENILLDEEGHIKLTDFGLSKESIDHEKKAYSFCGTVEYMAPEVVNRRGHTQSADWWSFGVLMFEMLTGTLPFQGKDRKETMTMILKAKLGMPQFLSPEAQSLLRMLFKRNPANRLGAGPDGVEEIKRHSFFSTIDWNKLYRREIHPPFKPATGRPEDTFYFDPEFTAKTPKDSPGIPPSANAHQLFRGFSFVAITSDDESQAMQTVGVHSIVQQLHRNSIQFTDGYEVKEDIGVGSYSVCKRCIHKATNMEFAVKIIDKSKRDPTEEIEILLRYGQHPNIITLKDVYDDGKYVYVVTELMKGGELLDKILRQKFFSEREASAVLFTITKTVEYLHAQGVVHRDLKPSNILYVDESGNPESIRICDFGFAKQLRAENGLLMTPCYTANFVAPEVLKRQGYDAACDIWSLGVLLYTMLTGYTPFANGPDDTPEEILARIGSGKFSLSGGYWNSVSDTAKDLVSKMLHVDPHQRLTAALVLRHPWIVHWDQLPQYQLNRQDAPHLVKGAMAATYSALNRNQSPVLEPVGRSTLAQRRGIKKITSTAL
UniProt P43362: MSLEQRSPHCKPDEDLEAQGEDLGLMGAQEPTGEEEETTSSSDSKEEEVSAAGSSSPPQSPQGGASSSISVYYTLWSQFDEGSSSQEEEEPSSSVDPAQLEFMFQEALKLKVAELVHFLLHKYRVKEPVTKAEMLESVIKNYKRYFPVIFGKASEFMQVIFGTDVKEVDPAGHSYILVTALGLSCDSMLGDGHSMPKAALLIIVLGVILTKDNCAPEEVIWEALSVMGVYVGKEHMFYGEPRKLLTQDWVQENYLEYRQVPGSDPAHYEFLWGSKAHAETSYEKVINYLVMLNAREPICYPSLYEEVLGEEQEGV
UniProt P51532, whole entry: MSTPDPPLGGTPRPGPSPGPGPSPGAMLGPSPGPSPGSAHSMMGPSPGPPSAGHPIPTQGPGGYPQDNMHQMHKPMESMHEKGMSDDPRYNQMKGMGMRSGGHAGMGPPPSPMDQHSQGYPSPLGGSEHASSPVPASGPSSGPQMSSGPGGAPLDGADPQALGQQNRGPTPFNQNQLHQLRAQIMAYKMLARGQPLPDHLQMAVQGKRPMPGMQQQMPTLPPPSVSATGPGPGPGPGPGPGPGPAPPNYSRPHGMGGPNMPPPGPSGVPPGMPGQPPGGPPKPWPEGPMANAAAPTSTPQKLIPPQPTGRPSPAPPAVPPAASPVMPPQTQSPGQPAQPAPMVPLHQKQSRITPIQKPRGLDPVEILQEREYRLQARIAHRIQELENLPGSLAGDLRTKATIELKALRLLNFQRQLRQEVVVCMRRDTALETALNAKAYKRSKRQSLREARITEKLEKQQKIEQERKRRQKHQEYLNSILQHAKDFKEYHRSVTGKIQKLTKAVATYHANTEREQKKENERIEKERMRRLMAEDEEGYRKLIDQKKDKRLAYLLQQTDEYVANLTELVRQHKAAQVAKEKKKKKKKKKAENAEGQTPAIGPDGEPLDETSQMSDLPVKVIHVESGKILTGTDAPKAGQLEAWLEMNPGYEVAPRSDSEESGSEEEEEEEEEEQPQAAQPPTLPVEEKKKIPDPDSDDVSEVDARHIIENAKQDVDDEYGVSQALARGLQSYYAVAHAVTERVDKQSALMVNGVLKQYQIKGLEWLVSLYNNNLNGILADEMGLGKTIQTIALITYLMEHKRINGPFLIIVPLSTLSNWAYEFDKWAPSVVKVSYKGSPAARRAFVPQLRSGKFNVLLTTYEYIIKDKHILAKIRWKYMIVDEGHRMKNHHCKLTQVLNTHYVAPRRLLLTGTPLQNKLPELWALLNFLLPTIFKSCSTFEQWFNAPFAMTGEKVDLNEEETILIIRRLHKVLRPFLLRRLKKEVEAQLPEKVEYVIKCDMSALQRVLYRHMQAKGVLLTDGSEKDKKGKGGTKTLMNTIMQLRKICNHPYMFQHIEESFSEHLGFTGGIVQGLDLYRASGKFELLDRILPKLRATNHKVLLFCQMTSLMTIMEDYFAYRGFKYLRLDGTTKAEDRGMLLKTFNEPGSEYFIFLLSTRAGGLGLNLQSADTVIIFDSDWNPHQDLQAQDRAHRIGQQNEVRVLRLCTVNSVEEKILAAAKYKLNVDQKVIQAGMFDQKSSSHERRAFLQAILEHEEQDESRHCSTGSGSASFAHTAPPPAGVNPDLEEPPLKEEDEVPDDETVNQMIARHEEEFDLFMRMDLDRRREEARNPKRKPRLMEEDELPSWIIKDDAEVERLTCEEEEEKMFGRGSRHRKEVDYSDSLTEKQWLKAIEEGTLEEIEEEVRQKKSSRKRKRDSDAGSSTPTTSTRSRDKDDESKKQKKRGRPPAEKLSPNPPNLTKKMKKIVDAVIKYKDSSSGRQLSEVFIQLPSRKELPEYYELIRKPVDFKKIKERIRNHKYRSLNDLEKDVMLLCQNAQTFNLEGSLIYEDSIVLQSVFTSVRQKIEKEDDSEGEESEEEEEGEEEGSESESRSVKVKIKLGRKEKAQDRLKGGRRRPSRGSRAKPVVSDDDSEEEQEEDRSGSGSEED

compound: Nc1ncnc2c1ncn2[C@@H]1O[C@H](COP(=O)(O)OP(=O)(O)OP(=O)(O)O)[C@@H](O)[C@H]1O [adenosine triphosphate]; assay: NP40-soluble protein abundance relative to vehicle (solubility fold change) (ratio); higher = more soluble protein in presence of ATP; conditions: concentration: 6mM
Procedure, shortened: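 Values are fold changes against the detergent-processed vehicle, based on vsn-normalised intensities. Jurkat crude lysate was treated at eight concentrations from 0.1 to 10 mM (10 min at room temperature, then 3 min at 37 °C), solubilised with 0.8% NP40 and benzonase, ultracentrifuged and analysed by TMT-labelled LC-MS/MS over three independent experiments.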

Target	NP40-soluble protein abundance
TUFM (UniProt P49411)	0.935 ± 0.037
UniProt P45983-3|P45983-4	1 ± 0.064
UniProt P36954	1.11 ± 0.1
UniProt P51148 and related entries	0.946 ± 0.075
UniProt P46108 and related entries	0.992 ± 0.036
ST13 (UniProt P50502)	1.01 ± 0.063
CDC34 (UniProt P49427)	1.01 ± 0.065
NUP153 (UniProt P49790)	1.03 ± 0.033
TSFM (UniProt P43897)	0.982 ± 0.065
UniProt P48059 and related entries	0.983 ± 0.071

same assay, conditions: concentration: 8mM

Target	NP40-soluble protein abundance
RPL27A (UniProt P46776)	0.633 ± 0.035
PREP (UniProt P48147)	1.03 ± 0.083
UniProt P49916 and related entries	1.12 ± 0.036
RPL3 (UniProt P39023)	0.863 ± 0.094
UniProt P50851 and related entries	0.985 ± 0.015
UniProt P49023-2	0.941 ± 0.03
UniProt P36402-5	0.892 ± 0.14
GCLM (UniProt P48507)	0.891 ± 0.029
UniProt P40763 and related entries	0.983 ± 0.022
RBM5 (UniProt P52756)	1.16 ± 0.045
TXLNA (UniProt P40222)	1.06 ± 0.1
UniProt P52739 and related entries	0.995 ± 0.14
FEN1 (UniProt P39748)	0.998 ± 0.052
MCM2 (UniProt P49736)	0.951 ± 0.045
RPL29 (UniProt P47914)	0.616 ± 0.062
UniProt P51812	1.05 ± 0.078
MAGEA9 (UniProt P43362)	1.02 ± 0.16
UniProt P48729 and related entries	1.25 ± 0.14
UniProt P41134 and related entries	0.914 ± 0.086

Target	NP40-soluble protein abundance
UniProt P36639 and related entries	0.96 ± 0.047
CASP3 (UniProt P42574)	0.975 ± 0.079
CCT4 (UniProt P50991)	0.835 ± 0.073
RANBP2 (UniProt P49792)	1.1 ± 0.028
UniProt P48960 and related entries	0.949 ± 0.025
PPOX (UniProt P50336)	1.06 ± 0.14
HPCAL1 (UniProt P37235)	0.929 ± 0.043
UniProt P51532-2|P51532-3|P51532-4|P51532-5|Q9HBD4 and related entries	1.06 ± 0.086
TUFM (UniProt P49411)	1.04 ± 0.072
UniProt P45983-3|P45983-4	1.01 ± 0.072
UniProt P36954	1.08 ± 0.025
UniProt P51148 and related entries	0.974 ± 0.073
UniProt P46108 and related entries	1.02 ± 0.056
ST13 (UniProt P50502)	0.9 ± 0.012
CDC34 (UniProt P49427)	0.916 ± 0.041
NUP153 (UniProt P49790)	1 ± 0.012
TSFM (UniProt P43897)	0.938 ± 0.026
UniProt P48059 and related entries	1.03 ± 0.059

same assay, conditions: concentration: 10mM

Target	NP40-soluble protein abundance
RPL27A (UniProt P46776)	0.858 ± 0.1
PREP (UniProt P48147)	0.968 ± 0.071
UniProt P49916 and related entries	1.15 ± 0.047
RPL3 (UniProt P39023)	1 ± 0.07
UniProt P50851 and related entries	0.966 ± 0.025
UniProt P49023-2	0.927 ± 0.023
UniProt P36402-5	0.885 ± 0.12
GCLM (UniProt P48507)	0.922 ± 0.025
UniProt P40763 and related entries	0.986 ± 0.028
RBM5 (UniProt P52756)	1.18 ± 0.071
TXLNA (UniProt P40222)	1.03 ± 0.27
UniProt P52739 and related entries	1.02 ± 0.088
FEN1 (UniProt P39748)	0.934 ± 0.028
MCM2 (UniProt P49736)	0.924 ± 0.052
RPL29 (UniProt P47914)	0.923 ± 0.19
UniProt P51812	1.02 ± 0.056
MAGEA9 (UniProt P43362)	0.949 ± 0.047
UniProt P48729 and related entries	1.21 ± 0.077
UniProt P41134 and related entries	0.863 ± 0.17

Target	NP40-soluble protein abundance
UniProt P36639 and related entries	0.948 ± 0.045
CASP3 (UniProt P42574)	0.985 ± 0.011
CCT4 (UniProt P50991)	0.795 ± 0.061
RANBP2 (UniProt P49792)	1.12 ± 0.043
UniProt P48960 and related entries	0.897 ± 0.055
PPOX (UniProt P50336)	0.935 ± 0.063
HPCAL1 (UniProt P37235)	0.883 ± 0.044
UniProt P51532-2|P51532-3|P51532-4|P51532-5|Q9HBD4 and related entries	1.07 ± 0.079
TUFM (UniProt P49411)	0.994 ± 0.038
UniProt P45983-3|P45983-4	0.99 ± 0.039
UniProt P36954	1.07 ± 0.069
UniProt P51148 and related entries	1 ± 0.087
UniProt P46108 and related entries	1.03 ± 0.072
ST13 (UniProt P50502)	0.855 ± 0.12
CDC34 (UniProt P49427)	0.985 ± 0.072
NUP153 (UniProt P49790)	1.033 ± 0.0093
TSFM (UniProt P43897)	0.928 ± 0.032
UniProt P48059 and related entries	0.989 ± 0.044
